# Test results as given in PubChem BioAssay AID504648 (National Center for Advancing Translational Sciences (NCATS), 2011).
# In all, about 390,000 compounds went through this assay and about 610 (0.16%) were called active. The inconclusive results got no clear call from the source; some entries with a clear call stand among them for comparison. The call rests on the fitted dose curve; in most records, active means well fitted inhibition curve with a large enough effect; inconclusive means small, poorly fitted or top-dose-only effect, or effect the other way, or another doubt; inactive means no such curve, though single readings can be large or run the other way. Potencies beside an inconclusive call are fits to weak or partial responses and may not hold up.
# Assay: Nrf2 qHTS screen for inhibitors: counterscreen for cytotoxicity
# Details: A549 ARE-Fluc cells, CellTiter-Fluor viability, 18-24 h; activity change, negative = cytotoxicity: at 46 µM (top of the series)
# Description: NIH Molecular Libraries Probe Production Network [MLPCN]
# NIH Chemical Genomics Center [NCGC]
# Assay Provider: Shyam Biswal, Johns Hopkins University
# Nrf2 is a transcription factor that maintains cellular redox homoestasis and protects cells from xenobiotics. Nrf2 binds to the antioxidant response element (ARE) to induce gene expression of a broad spectrum of genes that encode for antioxidants. […] Finding a small molecule that act as an inhibitor of Nrf2 function would represent a novel therapeutic target that could lead to improvement in survival of patients undergoing chemo- and/or radio- therapy.
# So here we implemented a counterscreen to weed out the cytotoxic compounds.
# 1. Shibata, T., et al., Genetic Alteration of Keap1 Confers Constitutive Nrf2 Activation and Resistance to Chemotherapy in Gallbladder Cancer. Gastroenterology, 2008.
# 2. Sjoblom, T., et al., The consensus coding sequences of human breast and colorectal cancers. Science, 2006. 314(5797): p. 268-74.
# NCGC Assay Protocol Summary:
# A concentration-response assay was performed with A549 ARE_Fluc cells which are suspended in 5% FBS OPTI-MEM. Five uL were dispensed into 1536-well white TC-treated plate using the Kalypsys dispenser to achieve a density of 5000 cells/well in all columns except column 1. The plate is incubated at 37deg C at 5% CO2 for 2 hours before 23 nL of compounds are added with the Kalypsys pin tool equipped with a 1,536-pin array containing 10-nL slotted pins (FP1S10, 0.457-mm diameter, 50.8 mm long; V&P Scientific). The control compounds Budesonide and Staurosporine are both added at a concentration of 2mM and Budesonide is also added as a 1:10 titration, starting at 200uM, to achieve dose-response. After an 18-24 hour incubation at 37deg C at 5% CO2, 5ul of medium is added to column 1. Afterwards 1ul of 5x of CellTiter-Fluor (Promega) is added to every well. The plate is then incubated at 37deg C at 5% CO2 for 30 minutes before they are read on the ViewLux (Perkin Elmer) for a fluorescent read Ex=405(10)/Em=525(10) for a 3 second exposure, 2x binning, and high gain. Then 3 uL of 3x BugLite is dispensed into all wells and the plate is incubated at ambient room temperature for 15 minutes. Afterwards another ViewLux read is performed using the clear filter to get a luminescent read with the settings of 40 second exposure, 2x binning, and high gain. Cytotoxicity is assessed through the first fluorescent read and then biochemical activity against Nrf2 is measured in the luminescent read.
# On the % scale 0 is the no-effect control and ±100 the full control effect; potency means the concentration at half of the fitted maximal effect.
SMILES,Potency,"activity change, negative = cytotoxicity"
Cc1csc2sc(-c3ccnc(SCC(=O)NCc4ccccc4)n3)c(C)c12,"inconclusive: 9.2 µM [falling, partial curve, poor fit]",
CCc1ccc2[nH]c(=O)c(CN(Cc3ccccc3OC)Cc3nnnn3Cc3ccco3)cc2c1,"inconclusive: 25.9 µM [falling, single point]",
CC1CCC/C=C/C(=O)c2c(O)cc(O)cc2CC(=O)O1 (configuration not stated),active: 13 µM,
Cc1ccc(-n2nc3c(N4CCC(C(=O)NCc5ccccc5C)CC4)nnc(C)c3c2C)cc1,"inconclusive: 29.1 µM [falling, single point]",
N#C/C(=N\Nc1ccc(S(=O)(=O)N2CCCCC2)cc1)C(N)=S,"inconclusive: 10.3 µM [falling, partial curve, poor fit]",
CC(=O)Nc1ccc(S(=O)(=O)N2CCN(c3nc(NC4CCCC4)c4ccccc4n3)CC2)cc1,"inconclusive: 23.1 µM [falling, single point]",
CCOc1cc(S(=O)(=O)NC2CC(C)(C)NC(C)(C)C2)ccc1F,"inconclusive: 32.6 µM [activator, single point]",
Cc1nc(N2CCC(C)CC2)c2c(C)c(C(=O)Nc3cccc(C(F)(F)F)c3)sc2n1,"inconclusive: 18.4 µM [falling, single point]",
CCN(CC)C(=O)c1sc2c(c1C)c(=O)n(CCc1ccccc1)c(=O)n2Cc1ccc(C)cc1,,inactive: -14.3%
O=C(CSc1nc(-c2ccco2)cc(C(F)(F)F)n1)Nc1ccc(C(=O)N2CCCCC2)cc1,,inactive: -15.9%
COCCCN=C1NN=C(c2cc(C)n(Cc3ccccc3Cl)c2C)CS1,"inconclusive: 16.4 µM [falling, single point]",
O=[N+]([O-])c1cccc(S(=O)(=O)Nc2nc3ccccc3nc2Nc2cccc(S(=O)(=O)N3CCCCC3)c2)c1,"inconclusive: 5.8 µM [falling, full curve]",
COc1ccc(NC(=O)N(Cc2cc3cc(C)ccc3[nH]c2=O)CC2CCCO2)cc1 (configuration not stated),,inactive: -20.6%
O=C(O)c1cc2ccccc2c2cc(Br)ccc12,,inactive: -3.73%
COc1ccc(C(=O)/C(=C\c2ccco2)N2C=CC=CC2=C(C#N)C#N)cc1,active: 18.4 µM,
N#CCCn1nc(-c2ccc([N+](=O)[O-])cc2)cc1Nc1ccccc1NC(=O)C(F)(F)F,,inactive: -29%

SMILES,Potency,"activity change, negative = cytotoxicity"
COc1ccccc1NC(=O)c1sc2nc(-c3ccco3)ccc2c1N,"inconclusive: 18.4 µM [activator, single point]",
CSC1(SC2=NCCN2)SC2(NCCN2)S1,active: 7.31 µM,
COc1cccc(OC)c1OCCCN1CCC(Cc2ccccc2)CC1,"inconclusive: 23.1 µM [falling, single point]",
COc1ccc(C)cc1NC(=O)C1CCC(CNS(=O)(=O)c2ccc3c(c2)CCCC(=O)N3)CC1 (configuration not stated),"inconclusive: 3.66 µM [activator, full curve, poor fit]",
CCN(CC)c1ccc(/C=C/c2ccc3ccc(OC)cc3[n+]2CC)cc1,"inconclusive: 29.1 µM [falling, single point]",
O=C(C[C@H]1C/C=C\C[C@H](NC(=O)OCC2c3ccccc3-c3ccccc32)C(=O)O[C@H](c2ccccc2)CNC1=O)N[C@H](CO)Cc1ccccc1,"inconclusive: 16.4 µM [falling, partial curve, poor fit]",
CNc1cc(N2CCCCCC2)ccc1[N+](=O)[O-],"inconclusive: 29.1 µM [falling, single point]",
COc1ccc(Cc2nc(-c3ccc(-n4cccc4)cc3)no2)cc1,,inactive: 6.98%
COc1ccc(CCn2c(C)nc3c(c(=O)c4ccccc4n3C)c2=O)cc1,,inactive: 0.411%
COc1ccc2[nH]c3c(c2c1)CCN1C(=O)C(CC(=O)NC/C=C(\C)CCC=C(C)C)C[C@H](C(=O)N(C(C)C)C(C)C)[C@@]31C (some centres not stated),"inconclusive: 29.1 µM [falling, single point]",
CCOc1ccccc1C1CC(=O)Nc2cc3c(cc21)OCCO3 (configuration not stated),"inconclusive: 5.8 µM [falling, full curve]",
Cc1cc(/C=C2/C(=N)N3C(=NC2=O)SN=C3S(C)(=O)=O)c(C)n1-c1ccccc1F,"inconclusive: 20.6 µM [falling, single point]",
Cc1ccc(S(=O)(=O)c2nnn3c2nc(NC2CCCCCC2)c2sccc23)cc1C,,inactive: -23.4%
CCCCNC(=O)/C(C#N)=C/c1cccnc1,"inconclusive: 29.1 µM [falling, single point]",
Cc1ccc(-n2nc3c(c2NC(=O)c2ccc(Br)o2)CSC3)c(C)c1,,inactive: -0.0254%
Cc1ccccc1N1C(=O)c2cccc3c(N(C)CCO)ccc(c23)C1=O,"inconclusive: 29.1 µM [falling, single point]",

# A run of entries of the results above:
SMILES,Potency,"activity change, negative = cytotoxicity"
CNc1cc(N2CCCCCC2)ccc1[N+](=O)[O-],"inconclusive: 29.1 µM [falling, single point]",
COc1ccc(Cc2nc(-c3ccc(-n4cccc4)cc3)no2)cc1,,inactive: 6.98%
COc1ccc(CCn2c(C)nc3c(c(=O)c4ccccc4n3C)c2=O)cc1,,inactive: 0.411%
COc1ccc2[nH]c3c(c2c1)CCN1C(=O)C(CC(=O)NC/C=C(\C)CCC=C(C)C)C[C@H](C(=O)N(C(C)C)C(C)C)[C@@]31C (some centres not stated),"inconclusive: 29.1 µM [falling, single point]",
CCOc1ccccc1C1CC(=O)Nc2cc3c(cc21)OCCO3 (configuration not stated),"inconclusive: 5.8 µM [falling, full curve]",
Cc1cc(/C=C2/C(=N)N3C(=NC2=O)SN=C3S(C)(=O)=O)c(C)n1-c1ccccc1F,"inconclusive: 20.6 µM [falling, single point]",
Cc1ccc(S(=O)(=O)c2nnn3c2nc(NC2CCCCCC2)c2sccc23)cc1C,,inactive: -23.4%
